This is an account of results in patent US20150098961A1.

Amino acid sequences for entries named in this document (tags omitted). A change or cut given only in a name is not applied to a line headed by its entry.
UniProt P53508: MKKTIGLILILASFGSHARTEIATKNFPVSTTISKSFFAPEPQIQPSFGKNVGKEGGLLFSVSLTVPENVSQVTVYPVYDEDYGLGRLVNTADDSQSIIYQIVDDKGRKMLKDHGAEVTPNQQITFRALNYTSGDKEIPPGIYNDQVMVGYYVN
UniProt P53510: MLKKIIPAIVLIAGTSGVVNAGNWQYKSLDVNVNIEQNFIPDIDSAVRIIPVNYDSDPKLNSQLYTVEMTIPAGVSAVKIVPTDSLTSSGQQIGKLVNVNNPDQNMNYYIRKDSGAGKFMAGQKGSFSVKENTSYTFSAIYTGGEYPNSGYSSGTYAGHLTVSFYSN
UniProt P15488: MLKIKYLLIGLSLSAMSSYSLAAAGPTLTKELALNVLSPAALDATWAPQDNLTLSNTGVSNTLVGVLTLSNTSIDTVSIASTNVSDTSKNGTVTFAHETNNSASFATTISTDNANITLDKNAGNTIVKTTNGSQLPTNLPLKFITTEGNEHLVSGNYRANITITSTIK

For assay [1], the target named is CssA (ETEC CS6 major fimbrial subunit) (enterotoxigenic Escherichia coli) (UniProt P53508). In words: PAGE, denaturing against non-denaturing; self-association.
Assay [2] concerns the target CssB (ETEC CS6 major fimbrial subunit) (enterotoxigenic Escherichia coli) (UniProt P53510). The description is as above.
For assay [3], the target named is CstH (ETEC CS3 major fimbrial subunit) (enterotoxigenic Escherichia coli) (UniProt P15488). The assay is described as above.
Assay [4] shares this target. As to the kind of experiment: isolated non-covalent oligomer (3-14 subunits) used as immunogen.

No constants are given. Whether binding was seen depends on the method and setting. Some entries that bind do so weakly or less than the wild type.

Regarding “CssA (ETEC CS6 major fimbrial subunit) (from UniProt P53508 19-154)”, in assay [1], the binding entry is reported as “binds”.

“CssB (ETEC CS6 major fimbrial subunit) (from UniProt P53510 22-167)”: the binding result in assay [2] is “binds”.

Take “CstH (ETEC CS3 major fimbrial subunit) (from UniProt P15488 23-168)”: the binding entry in assay [3] and in assay [4] was “binds” throughout.
